Measurements: PubChem BioAssay (NCATS)
This list was built around the results that the source calls inconclusive (neither active nor inactive); the mix of calls is not that of the screen. Where the call is inconclusive, the potency comes from a doubtful curve fit. Activity calls are given as the source filed them. Calls come from the whole dose curve; as a rule, active = well fitted curve in the direction sought with a large enough effect; inconclusive = small, poorly fitted or top-dose-only effect, or another doubt; inactive = no such curve, though single readings can be large; an effect the other way counts as inactive or inconclusive.

Tests used:
[1] = Quantitative High-Throughput drug screen in 47 multiple myeloma cell lines against the NCATS MIPE library collection: KMS20_JCRB cell viability assay (AID 1918973); conditions: CellTiter-Glo ATP, 48 h; viability (% of DMSO): at 45.8 µM (top of the series); note: nearly all actives have a fitted effect of over 45% in size
Procedure, shortened: (§1)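 We plated 500 myeloma cells per well, pinned in MIPE 4.0 compounds, and incubated for 48 hours at 37C. ATP was then quantified with CellTiter-Glo, with DMSO and media-only wells defining 100% and 0%.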

[2] = Quantitative High-Throughput drug screen in 47 multiple myeloma cell lines against the NCATS MIPE library collection: KMS21BM_JCRB cell viability assay (AID 1918974); conditions: ATP luminescence, 48 h; viability: at 45.8 µM (top of the series) unless noted
Procedure, shortened: as §1

[3] = Quantitative High-Throughput drug screen in 47 multiple myeloma cell lines against the NCATS MIPE library collection: KMS26_JCRB cell viability assay (AID 1918975); conditions: KMS26 myeloma cells viability, CellTiter-Glo ATP, 48 h; viability (% of DMSO): at 45.8 µM (top of the series); note: nearly all actives have a fitted effect of over 45% in size
Procedure, shortened: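 Relative luminescence from CellTiter-Glo served as the viability signal, referenced to DMSO-treated (100%) and cell-free medium (0%) controls. Treatment lasted 48 hours at 37C with 500 cells per well.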

[4] = Quantitative High-Throughput drug screen in 47 multiple myeloma cell lines against the NCATS MIPE library collection: MOLP8_DSMZ cell viability assay (AID 1918977); conditions: MOLP8 myeloma viability, CellTiter-Glo ATP luminescence, 48 h; viability (% of control): at 45.8 µM (top of the series); note: nearly all actives have a fitted effect of over 45% in size
Procedure, shortened: (§2)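 500 cells/well per myeloma line exposed to pinned MIPE 4.0 compounds for 48 h at 37 °C, 5% CO2. Viability read as ATP by CellTiter-Glo luminescence, normalised to DMSO-only (100%) and media-only (0%) wells.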

[5] = Quantitative High-Throughput drug screen in 47 multiple myeloma cell lines against the NCATS MIPE library collection: MM1R_ATCC cell viability assay (AID 1918981); note: nearly all actives have a fitted effect of over 35% in size
Procedure, shortened: as §2

[6] = Quantitative High-Throughput drug screen in 47 multiple myeloma cell lines against the NCATS MIPE library collection: LP1_DSMZ cell viability assay (AID 1918982); conditions: LP1 myeloma viability, CellTiter-Glo ATP luminescence, 48 h; viability (% of control): at 45.8 µM (top of the series); note: nearly all actives have a fitted effect of over 35% in size
Procedure, shortened: as §2

[7] = Quantitative High-Throughput drug screen in 47 multiple myeloma cell lines against the NCATS MIPE library collection: L363_DSMZ cell viability assay (AID 1918984); conditions: L363 myeloma viability, CellTiter-Glo ATP luminescence, 48 h; viability (% of control): at 45.8 µM (top of the series); note: nearly all actives have a fitted effect of over 40% in size
Procedure, shortened: as §2

[8] = Quantitative High-Throughput drug screen in 47 multiple myeloma cell lines against the NCATS MIPE library collection: KMS34_JCRB cell viability assay (AID 1918985); conditions: KMS34 myeloma viability, CellTiter-Glo ATP luminescence, 48 h; viability, percent of control: at 45.8 µM (top of the series); note: nearly all actives have a fitted effect of over 40% in size
Procedure, shortened: as §2

[9] = Quantitative High-Throughput drug screen in 47 multiple myeloma cell lines against the NCATS MIPE library collection: OCIMY7_PLB cell viability assay (AID 1918987); conditions: OCI-MY7 myeloma viability, CellTiter-Glo ATP, 48 h; viability (% of DMSO): at 45.8 µM (top of the series); note: nearly all actives have a fitted effect of over 65% in size
Procedure, shortened: as §2

[10] = Quantitative High-Throughput drug screen in 47 multiple myeloma cell lines against the NCATS MIPE library collection: U266_ATCC cell viability assay (AID 1919864); conditions: U266 myeloma viability, CellTiter-Glo ATP luminescence, 48 h; viability (% of DMSO control): at 45.8 µM (top of the series); note: nearly all actives have a fitted effect of over 35% in size
Procedure, shortened: as §2

[11] = Quantitative High-Throughput drug screen in 47 multiple myeloma cell lines against the NCATS MIPE library collection: XG1_PLB cell viability assay (AID 1919866); conditions: CellTiter-Glo ATP, 48 h; viability: at 45.8 µM (top of the series); note: nearly all actives have a fitted effect of over 35% in size
Procedure, shortened: as §2

[12] = Quantitative High-Throughput drug screen in 47 multiple myeloma cell lines against the NCATS MIPE library collection: MMM1_PLB cell viability assay (AID 1918976); note: nearly all actives have a fitted effect of over 35% in size
Procedure, shortened: as §2

[13] = Quantitative High-Throughput drug screen in 47 multiple myeloma cell lines against the NCATS MIPE library collection: NCIH929_DSMZ cell viability assay (AID 1918978); note: nearly all actives have a fitted effect of over 35% in size
Procedure, shortened: as §2

[14] = Quantitative High-Throughput drug screen in 47 multiple myeloma cell lines against the NCATS MIPE library collection: MM1S_ATCC cell viability assay (AID 1918980); note: nearly all actives have a fitted effect of over 45% in size
Procedure, shortened: as §2

[15] = Quantitative High-Throughput drug screen in 47 multiple myeloma cell lines against the NCATS MIPE library collection: KMS28PE_JCRB cell viability assay (AID 1918983); note: nearly all actives have a fitted effect of over 35% in size
Procedure, shortened: as §2

[16] = Quantitative High-Throughput drug screen in 47 multiple myeloma cell lines against the NCATS MIPE library collection: OCIMY5_PLB cell viability assay (AID 1918988); conditions: OCI-MY5 myeloma viability, ATP luminescence, 48 h; viability, % of control: at 45.8 µM (top of the series); note: nearly all actives have a fitted effect of over 65% in size
Procedure, shortened: as §2

[17] = Quantitative High-Throughput drug screen in 47 multiple myeloma cell lines against the NCATS MIPE library collection: OPM1_PLB cell viability assay (AID 1918989); note: nearly all actives have a fitted effect of over 40% in size
Procedure, shortened: as §2

[18] = Quantitative High-Throughput drug screen in 47 multiple myeloma cell lines against the NCATS MIPE library collection: SKMM1_PLB cell viability assay (AID 1919863); conditions: SKMM1 myeloma viability, CellTiter-Glo ATP, 48 h; viability: active compounds read low; note: nearly all actives have a fitted effect of over 35% in size
Procedure, shortened: as §2

[19] = Quantitative High-Throughput drug screen in 47 multiple myeloma cell lines against the NCATS MIPE library collection: OCIMY1_PLB cell viability assay (AID 1918979); conditions: OCI-MY1 myeloma viability, CellTiter-Glo ATP, 48 h; viability: at 45.8 µM (top of the series) unless noted; note: nearly all actives have a fitted effect of over 35% in size
Procedure, shortened: as §2

[20] = Quantitative High-Throughput drug screen in 47 multiple myeloma cell lines against the NCATS MIPE library collection: XG6_PLB cell viability assay (AID 1919865); conditions: XG6 myeloma viability, CellTiter-Glo ATP luminescence, 48 h; viability (% of control): at 45.8 µM (top of the series); note: nearly all actives have a fitted effect of over 40% in size
Procedure, shortened: as §2
Potency is the fitted concentration of half-maximal effect.

Cc1cc(-c2ncc(CC(=O)Nc3ccc(-c4cnccn4)cn3)cc2C)ccn1
active: Potency [2] 18.7 µM | Potency [7] 14.8 µM | Potency [10] 20.9 µM | Potency [11] 16.6 µM
inconclusive: Potency [1] 11.8 µM [cytotoxic, full curve, poor fit] | Potency [3] 20.9 µM [cytotoxic, partial curve, poor fit] | viability (% of control) [4] 81.8% [cytotoxic] | Potency [5] 14.8 µM [cytotoxic, partial curve, poor fit] | Potency [6] 7.43 µM [cytotoxic, partial curve] | Potency [8] 9.35 µM [cytotoxic, partial curve, poor fit] | Potency [9] 5.26 µM [cytotoxic, full curve, poor fit]

Cn1c(NCCN(CCO)CCCc2ccc([N+](=O)[O-])cc2)cc(=O)n(C)c1=O
inconclusive: Potency [1] 20.9 µM [cytotoxic, partial curve, poor fit] | Potency [12] 0.0105 µM [rising, full curve, poor fit] | Potency [4] 16.6 µM [cytotoxic, single point] | Potency [13] 37.2 µM [cytotoxic, single point] | Potency [5] 33.2 µM [cytotoxic, single point] | Potency [6] 23.5 µM [cytotoxic, single point] | Potency [15] 33.2 µM [cytotoxic, single point] | Potency [7] 26.4 µM [cytotoxic, single point] | Potency [16] 37.2 µM [cytotoxic, single point] | Potency [17] 23.5 µM [cytotoxic, single point] | Potency [10] 20.9 µM [cytotoxic, partial curve]
active: Potency [2] 10.5 µM | Potency [14] 23500 nM
inactive: Potency [8] | Potency [9] | viability [18] 107%

Nc1ccc(S(=O)(=O)Nc2ncccn2)cc1
inconclusive: Potency [1] 7.43 µM [rising, partial curve, poor fit] | Potency [2] 23.5 µM [rising, single point] | Potency [12] 0.0047 µM [rising, full curve, poor fit] | Potency [13] 0.0372 µM [rising, full curve, poor fit] | Potency [7] 0.0012 µM [rising, full curve, poor fit] | Potency [8] 0.0059 µM [rising, full curve, poor fit] | Potency [9] 7.43 µM [rising, partial curve, poor fit] | Potency [16] 0.0047 µM [rising, full curve, poor fit]
inactive: Potency [4] | Potency [19] | Potency [14] | Potency [5] | Potency [6] | viability [18] 155% | Potency [10]

Cc1cc(Nc2nc(N[C@@H](C)c3ccc(F)cc3)c(C#N)cc2F)n[nH]1
inconclusive: Potency [2] 33.2 µM [rising, partial curve, poor fit] | Potency [19] 7.43 µM [cytotoxic, partial curve, poor fit] | Potency [6] 5.26 µM [cytotoxic, partial curve] | Potency [7] 3.32 µM [cytotoxic, full curve, poor fit]
active: Potency [1] 5.26 µM | Potency [3] 8.33 µM | Potency [13] 13.2 µM | Potency [16] 4.18 µM

CN1CC(=O)NC1=NC(=O)Nc1cccc(Cl)c1
active: Potency [3] 18.7 µM | Potency [6] 14.8 µM | Potency [7] 2.96 µM | Potency [18] 18.7 µM | Potency [20] 23.5 µM | Potency [11] 29.6 µM
inconclusive: Potency [1] 14.8 µM [cytotoxic, partial curve, poor fit] | Potency [2] 23.5 µM [rising, partial curve] | Potency [8] 11.8 µM [cytotoxic, partial curve, poor fit]

O=C(O)c1ccc2c(c1)nc(Nc1cccc(Cl)c1)c1ccncc12
inconclusive: Potency [1] 7.43 µM [cytotoxic, partial curve, poor fit] | Potency [3] 16.6 µM [cytotoxic, partial curve, poor fit]
active: Potency [2] 3.32 µM | Potency [7] 4.69 µM | Potency [9] 2.35 µM | Potency [16] 13.2 µM

Fc1ccc(C(c2ccc(F)cc2)N2CCN(CC=Cc3ccccc3)CC2)cc1
inactive: Potency [19] | Potency [7] | Potency [8] | Potency [17] | viability [18] 107% | Potency [10]
inconclusive: Potency [1] 16.6 µM [cytotoxic, partial curve, poor fit] | Potency [2] 33.2 µM [rising, single point] | Potency [12] 16.6 µM [cytotoxic, partial curve, poor fit] | Potency [4] 0.0372 µM [rising, full curve, poor fit] | Potency [14] 1 nM [cytotoxic] | Potency [5] 14.8 µM [cytotoxic, partial curve, poor fit]

N=C(N)c1ccc2cc(OC(=O)c3ccc(N=C(N)N)cc3)ccc2c1
inactive: Potency [13] | Potency [14] | Potency [20]
inconclusive: Potency [1] 0.0074 µM [cytotoxic, full curve, poor fit] | Potency [2] 9.35 µM [rising, full curve] | Potency [3] 16.6 µM [cytotoxic, partial curve, poor fit] | Potency [19] 4.18 µM [cytotoxic, partial curve, poor fit] | Potency [15] 23.5 µM [cytotoxic, single point] | Potency [7] 8.33 µM [cytotoxic, full curve, poor fit] | Potency [9] 41.8 µM [cytotoxic, partial curve, poor fit] | Potency [17] 18.7 µM [cytotoxic, partial curve]

CC(C)c1onc(-c2c(Cl)cccc2Cl)c1COc1ccc(C=Cc2cccc(C(=O)O)c2)c(Cl)c1
inactive: Potency [4] | Potency [6] | Potency [8] | viability [18] 113% | Potency [11]
inconclusive: Potency [1] 0.0332 µM [cytotoxic, full curve, poor fit] | Potency [2] 2.96 µM [rising, full curve] | Potency [3] 37.2 µM [cytotoxic, single point] | Potency [15] 5.9 µM [cytotoxic, partial curve, poor fit] | Potency [7] 0.332 µM [cytotoxic, full curve, poor fit] | Potency [9] 13.2 µM [cytotoxic, partial curve, poor fit] | Potency [16] 20.9 µM [cytotoxic, partial curve, poor fit] | Potency [10] 20.9 µM [cytotoxic, partial curve, poor fit] | Potency [20] 0.0033 µM [rising, full curve, poor fit]

O=C1CCC(N2C(=O)c3ccccc3C2=O)C(=O)N1 (stereo not given)
inactive: Potency [13] | Potency [17] | Potency [20]
inconclusive: Potency [1] 0.0132 µM [cytotoxic, full curve, poor fit] | Potency [2] 33.2 µM [rising, partial curve] | Potency [3] 0.0053 µM [cytotoxic, full curve, poor fit] | Potency [14] 16.6 nM [cytotoxic, full curve, poor fit] | Potency [15] 59 µM [cytotoxic, partial curve, poor fit] | Potency [7] 0.0013 µM [cytotoxic, full curve, poor fit] | Potency [8] 0.059 µM [cytotoxic, full curve, poor fit] | Potency [9] 0.0187 µM [cytotoxic, full curve, poor fit] | Potency [16] 0.0037 µM [cytotoxic, full curve, poor fit]
active: Potency [18] 23.5 µM

CC(=O)NC[C@H]1CN(c2ccc(N3CCOCC3)c(F)c2)C(=O)O1
inconclusive: Potency [1] 4.18 µM [cytotoxic, full curve, poor fit] | Potency [2] 33.2 µM [rising, partial curve] | Potency [6] 0.0017 µM [cytotoxic, full curve, poor fit] | Potency [7] 11.8 µM [cytotoxic, full curve, poor fit] | Potency [9] 10.5 µM [cytotoxic, partial curve, poor fit] | Potency [16] 2.09 µM [cytotoxic, full curve, poor fit] | Potency [17] 18.7 µM [cytotoxic, single point]
inactive: Potency [3] | Potency [19] | Potency [8] | Potency [20] | Potency [11]

COc1ccc2ccc(=O)oc2c1CC=C(C)C
inactive: Potency [1] | Potency [13] | Potency [17]
inconclusive: Potency [2] 20.9 µM [cytotoxic, partial curve, poor fit] | Potency [15] 11.8 µM [cytotoxic, partial curve, poor fit] | Potency [9] 33.2 µM [cytotoxic, single point] | Potency [18] 3.72 µM [cytotoxic, full curve, poor fit] | Potency [20] 33.2 µM [cytotoxic, single point] | Potency [11] 18.7 µM [cytotoxic, partial curve, poor fit]
active: Potency [12] 16.6 µM | Potency [4] 8.33 µM | Potency [19] 23.5 µM | Potency [7] 10.5 µM
